No constants are given. Whether binding was seen depends on the method and setting. Some entries that bind do so weakly or less than the wild type.
Molecular target: recombinant human CD137 extracellular domain (Peprotech, cat. 310-15-1MG) (human) (UniProt Q07011)
Test: flow cytometry, binder on protein G beads, R-PE labeled CD137 ECD

Protein sequences, listed by entry. Tags and fused reporters are not part of them. Lines headed by an entry give the natural chain unless they say otherwise; changes in a name come on top. Residues count along the entry.
UniProt Q07011: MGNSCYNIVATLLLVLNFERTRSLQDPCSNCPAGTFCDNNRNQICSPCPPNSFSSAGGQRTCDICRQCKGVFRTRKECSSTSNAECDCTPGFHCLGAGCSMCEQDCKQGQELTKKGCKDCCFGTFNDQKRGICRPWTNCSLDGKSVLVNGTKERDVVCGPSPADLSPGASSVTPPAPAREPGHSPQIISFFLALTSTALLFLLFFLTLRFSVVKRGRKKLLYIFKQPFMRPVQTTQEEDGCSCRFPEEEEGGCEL
UniProt P41273, residues 50-254: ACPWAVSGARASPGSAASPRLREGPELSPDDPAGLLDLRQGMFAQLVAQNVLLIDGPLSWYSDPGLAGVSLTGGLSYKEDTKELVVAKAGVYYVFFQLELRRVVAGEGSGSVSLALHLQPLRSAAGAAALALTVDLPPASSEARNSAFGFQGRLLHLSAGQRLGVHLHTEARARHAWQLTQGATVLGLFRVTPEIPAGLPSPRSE

binding: binds
Substance: CD137L ECD fused to the Fc part of a human IgG1 (from UniProt P41273 50-254) (Fc fusion)

Reference: patent US20200332015A1
